Data as given in PubChem BioAssay AID602196 (INSERM, 2012).

Test: 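Modifiers of cisplatin sensitivity in A549 cells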
System: human A549 lung cancer cells
Reagent: siRNA pair against human genes
Timing: 48 h transfection before cisplatin; time from cisplatin to read-out not stated
Challenge: cisplatin at a dose killing half of control-siRNA cells; exact dose and duration not given
Read-out: 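Cisplatin cell death as a shift from the 50% death seen with control siRNA; siRNAs toxic or growth-blocking alone scored 0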
Direction: two-siRNA summed score (-2 to +2): higher = both siRNAs protect from cisplatin killing; -2 means both sensitise; mean protection from cisplatin (shift in death) and protection from cisplatin (shift in death), siRNA C and protection from cisplatin (shift in death), siRNA D: higher = protection from cisplatin killing
Rule for the call: 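Each siRNA scores 0 if harmful alone by LDH or WST-1, otherwise +1 if it reduces and -1 if it increases cisplatin killing; a gene is active when both siRNAs agree (sum +2 or -2)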
Calls: active = both siRNAs shift cisplatin killing the same way; inactive = no consistent shift, or siRNA harmful alone
This is an unselected part of about 23,000 reagents. 455 of them (2%) count as active. 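Active includes both protection and sensitisation; some change values fall well beyond the stated -50 to +50 range.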 Entries without a mark were called inactive. The numbers tell different reagents against one gene apart. Not stated in the record: the amount of reagent.

no.	gene	reagent no.	two-siRNA summed score (-2 to +2)	mean protection from cisplatin (shift in death) (%)	protection from cisplatin (shift in death), siRNA C (%)	protection from cisplatin (shift in death), siRNA D (%)
1	HSPH1 (heat shock protein family H (Hsp110) member 1)	1	0	5.1	6.3	4
2	LSP1 (lymphocyte specific protein 1)	1	0	-3.3	-1.8	-4.8
3	LSP1 (lymphocyte specific protein 1)	2	0	10.2	12.1	8.3
4	LINC00574 (long independently transcribed non-coding RNA 574)	1	0	2.2	5.1	-0.8
5	AP5S1 (adaptor related protein complex 5 subunit sigma 1)	1	0	8.5	5.4	11.7
6	OR5C1 (olfactory receptor family 5 subfamily C member 1)	1	-1	-8.2	-13.9	-2.6
7	BRINP1 (BMP/retinoic acid inducible neural specific 1)	1	-1	-9	-13.1	-4.9
8	TCFL5 (transcription factor like 5)	1	-1	-32.1	-41.1	-23.1
9	ITGB8 (integrin subunit beta 8)	1	0	1.9	-7.7	11.5
10	SERPI-2	1	-1	-6.2	-1.4	-11.1
11	LDLRAD3 (low density lipoprotein receptor class A domain containing 3)	1	-1	4.3	27.6	-19
12	OTOP2 (otopetrin 2)	1	0	1.9	10.8	-7.1
13	HMGN2P46	1	0	7.3	0.6	14
14	CCNE1 (cyclin E1)	1	1	12.1	1.5	22.7
15	ADAMTS4 (ADAM metallopeptidase with thrombospondin type 1 motif 4)	1	0	2.9	3.2	2.5
16	NECTIN4 (nectin cell adhesion molecule 4)	1	0	3.4	-4.5	11.4
17	LOC389207	1	-1	-8.9	7.7	-25.6
18	FFAR4 (free fatty acid receptor 4)	1	0	-7.2	-5.8	-8.7
19	LOC401589 (Putative uncharacterized protein FLJ39060)	1	0	11.4	8.7	14.2
20	LOC392382	1	0	4.2	17.4	-9
21	SLIT2 (slit guidance ligand 2)	1	0	0.9	0.6	1.3
22	KLHL6 (kelch like family member 6)	1	1	8.1	13.7	2.5
23	HCAR2 (hydroxycarboxylic acid receptor 2)	1	1	7.7	-1.8	17.1

Part of the list above in another layout:
{"gene": "LINC00574 (long independently transcribed non-coding RNA 574)", "reagent no.": 1, "two-siRNA summed score (-2 to +2)": 0, "mean protection from cisplatin (shift in death) (%)": 2.2, "protection from cisplatin (shift in death), siRNA C (%)": 5.1, "protection from cisplatin (shift in death), siRNA D (%)": -0.8}
{"gene": "AP5S1 (adaptor related protein complex 5 subunit sigma 1)", "reagent no.": 1, "two-siRNA summed score (-2 to +2)": 0, "mean protection from cisplatin (shift in death) (%)": 8.5, "protection from cisplatin (shift in death), siRNA C (%)": 5.4, "protection from cisplatin (shift in death), siRNA D (%)": 11.7}
{"gene": "OR5C1 (olfactory receptor family 5 subfamily C member 1)", "reagent no.": 1, "two-siRNA summed score (-2 to +2)": -1, "mean protection from cisplatin (shift in death) (%)": -8.2, "protection from cisplatin (shift in death), siRNA C (%)": -13.9, "protection from cisplatin (shift in death), siRNA D (%)": -2.6}
